Source: patent US20040106198A1, “Inhibition of peptide cleavage in plants” (LARGE SCALE BIOLOGY CORPORATION, priority 2002, published 2004)
At least one structure is not confirmed: it was looked up by name or label, or the drawing left a doubt. Numbered stars: 1 amine (or outer) side, 2 acyl side, 3 side chain; on linkers, the order of the positions; unused ones are H or OH. Peptide text beside a SMILES is read from it. CO = O=C([*:1])[*:2]

System: Nicotianalisin
Assay: Protease inhibitor study in plant interstitial fluid (IF), N-Suc-AAPL-p-NA hydrolysis
Assay type: biochemical, N. benthamiana
Conditions: IF from viral vector-infected plants incubated with inhibitor 30 min at 24° C.; 0.3 mM N-Suc-AAPL-p-NA
Method: To further classify the protease activity in the plant IF extract, protease inhibitor studies were performed. Standard inhibitors from different classes of proteases were used. An aliquot of the plant IF was incubated with each inhibitor for 30 min at 24° C., and the free enzyme was incubated under the same conditions without the inhibitor to serve as the control. The protease activity after the inhibition was measured and compared to the control.
To further characterize the plant proteolytic activity, experiments were initiated to partially purify the plant protease. In order to purify the protease, enzyme assays were developed and utilized. Proteolytic activity was monitored by the hydrolysis of a synthetic substrate, hydrolysis of a protein substrate and/or by an in situ gel procedure. […] The absorbance of the p-nitroaniline (p-NA) produced was measured at 410 nm (Erlanger, Kokowsky, and Cohen, 1961; Nakajima et al., 1979). […] The rate of hydrolysis of N-Succinyl-Ala-Ala-Pro-Phe-thiobenzylester SEQ ID NO: in 10% DMSO and 4,4′-dithiodipyridine was monitored at […] using an extinction coefficient of 19800 cm^−1 M^−1 (Barrett and Kirschke, 1981). General proteolytic activity was measured with 2.0% azocasein or 2.0% azoalbumin and Fluorescein Isothiocyanate Casein (FITC-casein; (Twining, 1984)). […]

CC(C)[C@H](NC(=O)[C@H](CCCNC(=N)N)NC(=O)N[C@@H](Cc1ccccc1)C(=O)O)C(=O)N[C@H](C=O)CCCNC(=N)N [Antipain] ({Phe-CO}-Arg-Val-Arg-aldehyde)
% Inhibition: 77%
